Results taken from publication PMC10415446.
No constants are given. Whether binding was seen depends on the method and setting. Binding seen in cells or lysates may run through a third protein. Some entries that bind do so weakly or less than the wild type.

Sequences of proteins named here, by UniProt entry; tags and fusion partners are left off.
UniProt P63208: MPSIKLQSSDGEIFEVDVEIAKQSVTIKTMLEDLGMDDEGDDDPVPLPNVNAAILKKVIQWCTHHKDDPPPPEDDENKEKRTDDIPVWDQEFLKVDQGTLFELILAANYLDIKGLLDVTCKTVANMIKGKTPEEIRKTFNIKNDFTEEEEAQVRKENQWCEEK

T1: mCherry-cyclin F p.S621G (UniProt P41002)
T1 sequence: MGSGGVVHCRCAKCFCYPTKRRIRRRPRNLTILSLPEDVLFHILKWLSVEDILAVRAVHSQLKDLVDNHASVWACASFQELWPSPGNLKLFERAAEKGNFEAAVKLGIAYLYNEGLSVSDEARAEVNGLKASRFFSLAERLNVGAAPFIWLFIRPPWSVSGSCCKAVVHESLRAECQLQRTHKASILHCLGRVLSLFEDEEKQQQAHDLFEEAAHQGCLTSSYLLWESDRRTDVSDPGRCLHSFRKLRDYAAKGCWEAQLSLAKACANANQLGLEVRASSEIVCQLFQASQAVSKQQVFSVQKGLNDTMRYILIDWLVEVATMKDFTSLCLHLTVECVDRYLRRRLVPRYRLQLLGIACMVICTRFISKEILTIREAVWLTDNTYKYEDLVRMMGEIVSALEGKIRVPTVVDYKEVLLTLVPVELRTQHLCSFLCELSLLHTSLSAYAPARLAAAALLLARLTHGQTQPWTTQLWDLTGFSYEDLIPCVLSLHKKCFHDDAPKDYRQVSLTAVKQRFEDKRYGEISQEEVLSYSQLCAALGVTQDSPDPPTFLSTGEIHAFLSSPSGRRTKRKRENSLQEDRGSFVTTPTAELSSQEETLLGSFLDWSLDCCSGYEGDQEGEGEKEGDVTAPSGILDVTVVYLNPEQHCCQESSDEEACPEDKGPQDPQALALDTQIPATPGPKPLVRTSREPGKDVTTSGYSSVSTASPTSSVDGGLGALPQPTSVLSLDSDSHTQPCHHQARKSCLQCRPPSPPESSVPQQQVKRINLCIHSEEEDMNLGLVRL

T2: mCherry-cyclin F (p.M309A/R310A) (UniProt P41002)
T2 sequence: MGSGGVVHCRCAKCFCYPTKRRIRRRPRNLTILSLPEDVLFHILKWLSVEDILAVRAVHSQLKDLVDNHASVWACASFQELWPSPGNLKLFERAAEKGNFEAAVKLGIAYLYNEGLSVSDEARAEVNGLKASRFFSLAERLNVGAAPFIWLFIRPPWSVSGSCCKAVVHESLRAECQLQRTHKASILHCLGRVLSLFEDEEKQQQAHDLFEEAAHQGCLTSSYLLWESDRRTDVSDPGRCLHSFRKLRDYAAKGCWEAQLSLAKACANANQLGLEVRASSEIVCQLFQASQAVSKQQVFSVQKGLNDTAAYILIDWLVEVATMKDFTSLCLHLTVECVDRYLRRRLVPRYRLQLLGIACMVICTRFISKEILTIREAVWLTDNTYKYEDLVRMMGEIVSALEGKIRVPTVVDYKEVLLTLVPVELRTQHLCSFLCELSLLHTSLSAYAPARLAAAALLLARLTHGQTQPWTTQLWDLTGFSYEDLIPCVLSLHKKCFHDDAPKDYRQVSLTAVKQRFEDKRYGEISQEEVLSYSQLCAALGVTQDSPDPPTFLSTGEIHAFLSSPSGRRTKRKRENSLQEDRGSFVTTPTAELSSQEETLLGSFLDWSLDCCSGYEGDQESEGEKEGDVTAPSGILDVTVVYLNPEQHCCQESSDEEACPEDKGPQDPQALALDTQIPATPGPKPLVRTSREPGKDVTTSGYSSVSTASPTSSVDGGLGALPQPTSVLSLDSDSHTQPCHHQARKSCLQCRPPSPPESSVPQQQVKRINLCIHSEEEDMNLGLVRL

T3: mCherry-cyclin F WT (UniProt P41002)
T3 sequence: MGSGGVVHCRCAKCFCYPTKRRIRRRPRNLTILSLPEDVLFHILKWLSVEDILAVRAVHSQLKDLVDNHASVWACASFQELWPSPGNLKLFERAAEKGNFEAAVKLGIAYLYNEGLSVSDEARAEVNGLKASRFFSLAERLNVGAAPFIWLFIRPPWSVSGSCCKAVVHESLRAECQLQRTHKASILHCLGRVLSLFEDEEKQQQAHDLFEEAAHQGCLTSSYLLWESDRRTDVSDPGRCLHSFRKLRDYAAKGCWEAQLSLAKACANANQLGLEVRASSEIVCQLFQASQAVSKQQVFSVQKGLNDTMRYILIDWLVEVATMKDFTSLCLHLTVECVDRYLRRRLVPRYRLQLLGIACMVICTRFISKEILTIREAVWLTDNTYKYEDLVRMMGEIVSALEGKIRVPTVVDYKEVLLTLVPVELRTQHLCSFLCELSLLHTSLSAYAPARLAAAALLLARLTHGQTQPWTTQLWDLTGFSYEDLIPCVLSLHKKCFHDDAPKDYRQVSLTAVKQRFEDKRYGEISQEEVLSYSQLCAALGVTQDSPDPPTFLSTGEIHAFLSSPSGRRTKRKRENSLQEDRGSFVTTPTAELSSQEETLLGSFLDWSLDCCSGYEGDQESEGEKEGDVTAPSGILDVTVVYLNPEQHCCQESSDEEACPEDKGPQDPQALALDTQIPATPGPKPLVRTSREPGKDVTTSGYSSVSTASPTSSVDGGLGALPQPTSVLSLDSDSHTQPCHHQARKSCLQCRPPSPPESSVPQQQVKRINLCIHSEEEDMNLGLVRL

T4: endogenous cyclin F (human (endogenous in HEK293)) (UniProt P41002)
T4 sequence: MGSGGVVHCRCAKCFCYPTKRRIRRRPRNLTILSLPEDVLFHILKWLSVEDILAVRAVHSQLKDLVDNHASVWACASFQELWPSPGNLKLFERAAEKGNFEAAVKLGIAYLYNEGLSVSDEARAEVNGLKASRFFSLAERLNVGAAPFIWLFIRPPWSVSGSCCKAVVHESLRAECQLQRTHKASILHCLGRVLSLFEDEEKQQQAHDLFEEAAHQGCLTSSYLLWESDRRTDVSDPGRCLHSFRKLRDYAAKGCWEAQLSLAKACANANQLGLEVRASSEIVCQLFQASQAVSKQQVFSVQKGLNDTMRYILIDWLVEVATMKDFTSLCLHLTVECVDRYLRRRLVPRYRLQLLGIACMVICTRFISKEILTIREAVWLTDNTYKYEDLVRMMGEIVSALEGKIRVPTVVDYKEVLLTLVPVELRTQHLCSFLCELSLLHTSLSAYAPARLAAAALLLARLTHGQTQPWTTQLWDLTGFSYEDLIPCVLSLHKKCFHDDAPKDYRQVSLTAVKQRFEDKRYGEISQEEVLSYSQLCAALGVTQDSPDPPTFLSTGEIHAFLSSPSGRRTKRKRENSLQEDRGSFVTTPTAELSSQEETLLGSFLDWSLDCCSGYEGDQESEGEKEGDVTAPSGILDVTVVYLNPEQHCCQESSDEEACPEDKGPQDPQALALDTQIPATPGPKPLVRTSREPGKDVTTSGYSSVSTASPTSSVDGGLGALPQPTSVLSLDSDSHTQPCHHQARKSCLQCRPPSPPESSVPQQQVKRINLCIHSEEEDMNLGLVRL


Legend:
mCherry-cyclin F p.S621G = biological target: T1, mCherry-cyclin F p.S621G; assay: co-IP; HEK293 cells transiently expressing mCherry-cyclin F WT or mutants (or mCherry alone); NP-40 lysis buffer; about 500 µg cellular protein; RFP-Trap magnetic beads on the mCherry tag; endogenous partners detected by immunoblot
[1] = biological target: T2, mCherry-cyclin F (p.M309A/R310A); assay: as above
mCherry-cyclin F WT = biological target: T3, mCherry-cyclin F WT; assay: as above
[2] = biological target: T4, endogenous cyclin F (human (endogenous in HEK293)); assay: proximity ligation; Duolink in situ PLA on fixed, permeabilised asynchronous HEK293 cells; mouse anti-cyclin F with rabbit anti-p62 or rabbit anti-cdc6; foci (< 40 nm proximity) counted per cell

| binding (mCherry-cyclin F p.S621G) | binding [1] | binding (mCherry-cyclin F WT) | binding [2] | Molecule |
| --- | --- | --- | --- | --- |
| binds | binds | binds |  | Skp1 (from UniProt P63208 1-163) |
|  |  | binds | binds | cell division cycle 6 (CDC6) (protein, UniProt Q99741 1-560) MPQTRSQAQATISFPKRKLSRALNKAKNSSDAKLEPTNVQTVTCSPRVKALPLSPRKRLGDDNLCNTPHLPPCSPPKQGKKENGPPHSHTLKGRRLVFDNQLTIKSPSKRELAKVHQNKILSSVRKSQEITTNSEQRCPLKKESACVRLFKQEGTCYQQAKLVLNTAVPDRLPAREREMDVIRNFLREHICGKKAGSLYLSGAPGTGKTACLSRILQDLKKELKGFKTIMLNCMSLRTAQAVFPAIAQEICQEEVSRPAGKDMMRKLEKHMTAEKGPMIVLVLDEMDQLDSKGQDVLYTLFEWPWLSNSHLVLIGIANTLDLTDRILPRLQAREKCKPQLLNFPPYTRNQIVTILQDRLNQVSRDQVLDNAAVQFCARKVSAVSGDVRKALDVCRRAIEIVESDVKSQTILKPLSECKSPSEPLIPKRVGLIHISQVISEVDGNRMTLSQEGAQDSFPLQQKILVCSLMLLIRQLKIKEVTLGKLYEAYSKVCRKQQVAAVDQSECLSLSGLLEARGILGLKRNKETRLTKVFFKIEEKEIEHALKDKALIGNILATGLP |
